Reference: patent publication US20240197666A1, “DITERPENOID COMPOUNDS THAT ACT ON PROTEIN KINASE C (PKC)” (K-Gen Therapeutics, Inc., priority 2021, published 2024)
Some of these results come from one statement about several compounds together.

Tested on: human PBMC cells
Assay: Cytokine/chemokine gene expression in human PBMC (TaqMan);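 also: 2^-ΔΔCt fold change vs DMSO control normalized to 18S and GAPDH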
Assay type: cell-based
Settings: 4 h, 1 μM; listed as resiquimod
Procedure: Materials and methods: 100 million frozen human PBMC cells were purchased from Allcells (100 million/vial). The cells were thawed and recovered for one day before 1.5-1.8 million cells in 900 μl RPMI1640 with 10% heat-inactivated FBS were seeded in each well of 24-well plates. Various compounds in DMSO stock (500×) were diluted 50-fold with the same media to make 10× compound stock for most compounds. 1 μL of 5 mg/mL PMA was diluted to 99 μL of the media to make 50 μg/mL PMA. For PMA with ionomycin treatment condition, 1.5 μL of 50 μg/mL PMA and 3 μL of 500 μg/mL ionomycin were added to 145.5 μL of the media to make 10× compound stock. […]
100 μl of the diluted compound (10×) was added to the cells and the plates were incubated at 37′C, 5% CO2 incubator for 4 hours. […] Expression of 19 genes (IL-10, IL-2, IL-4, IL-6, IL-8, IL-10, IL-13, IL-18, IL-12p70/IL-12A, IL-12p40/IL-12B, IFN-α, IFN-γ, GM-CSF/CSF2, CCL2/MCP-1, MIP1a/CCL3, TNF-α, MX1, OAS1, ISG15) along with two housekeeping gene controls, 18S and GAPDH, was determined. Target gene expression in each sample was determined by relative quantification (RQ) using the comparative Ct (ΔΔCT) method. […] The relative expression level of target gene was calculated by using the equation: relative expression=2-ΔΔCT

For `CCOCc1nc2c(N)nc3ccccc3c2n1CC(C)(C)O` [Resiquimod, reference compound], the “Gene Relative Expression IL-6” value was > 400.
